This test deals with γ-secretase (Homo sapiens, UniProt P49768). Briefly: Screening for γ-secretase-modulating activity in SKNBE2 cells carrying the APP 695 wild type. The following applies: SKNBE2 cells carrying APP 695 wild type. On the procedure:
Screening of the Compounds of the Invention for γ-Secretase-Modulating Activity
Screening was carried out using SKNBE2 cells carrying the APP 695—wild type, grown in DMEM/NUT-mix F12 (HAM) provided by Gibco (cat no. 31330-38) containing 5% Serum/Fe supplemented with 1% non-essential amino acids.
Cells were grown to near confluency.
The screening was performed using the assay as described in Citron et al (1997) Nature Medicine 3: 67.

Each structure is given as a SMILES string. The structures given here were assigned with low confidence; some may be wrong.

The compound `CC(C)CC(C(=O)O)c1cc(-c2ccc(C(F)(F)F)cc2)cc(N(CC(C)C)c2ccc(Cl)cn2)c1` (stereo not shown) showed an EC50 of 210 nM.
